Assay results reported in PMC10112521, “High-throughput AR dimerization assay identifies androgen disrupting chemicals and metabolites” (Frontiers in Toxicology, 2023).

Test system: AR2 cells (HepG2-AR2)
Assay: Alamar Blue (resazurin) post hoc cell viability / cytotoxicity assay in AR2 cells
Details: spid Viability; sheet antagonist_fits; 0 where win_model is Constant

For Abamectin, the “hill_gw (Hill model slope)” value was 0.9681.
